The supplement of paper PMC10849652
Some of the results follow.

By UniProt entry, the sequences of proteins in these tests, tags left out. Where a name states a change or a piece, a line headed by the entry shows the natural chain unless it says otherwise.
UniProt Q9BVJ6: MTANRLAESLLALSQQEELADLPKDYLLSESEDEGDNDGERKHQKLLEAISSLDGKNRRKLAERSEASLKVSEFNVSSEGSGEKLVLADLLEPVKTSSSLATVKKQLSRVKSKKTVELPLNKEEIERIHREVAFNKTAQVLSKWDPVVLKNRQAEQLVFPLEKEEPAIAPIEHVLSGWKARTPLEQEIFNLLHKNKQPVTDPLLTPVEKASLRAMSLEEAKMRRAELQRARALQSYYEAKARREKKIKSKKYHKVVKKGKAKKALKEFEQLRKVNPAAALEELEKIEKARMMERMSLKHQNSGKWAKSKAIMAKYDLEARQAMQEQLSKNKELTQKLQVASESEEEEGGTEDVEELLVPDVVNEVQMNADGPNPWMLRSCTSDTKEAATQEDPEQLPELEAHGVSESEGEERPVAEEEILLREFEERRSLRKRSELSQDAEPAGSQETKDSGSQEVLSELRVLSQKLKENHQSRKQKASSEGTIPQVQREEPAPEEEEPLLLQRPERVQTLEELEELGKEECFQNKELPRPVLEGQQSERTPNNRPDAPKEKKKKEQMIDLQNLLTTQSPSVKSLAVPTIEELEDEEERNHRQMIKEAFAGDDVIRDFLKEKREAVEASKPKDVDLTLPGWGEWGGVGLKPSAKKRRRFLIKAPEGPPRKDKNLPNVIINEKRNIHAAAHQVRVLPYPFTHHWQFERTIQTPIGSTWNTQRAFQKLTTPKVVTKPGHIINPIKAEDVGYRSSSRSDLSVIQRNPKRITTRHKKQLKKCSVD
UniProt Q9P2Y5: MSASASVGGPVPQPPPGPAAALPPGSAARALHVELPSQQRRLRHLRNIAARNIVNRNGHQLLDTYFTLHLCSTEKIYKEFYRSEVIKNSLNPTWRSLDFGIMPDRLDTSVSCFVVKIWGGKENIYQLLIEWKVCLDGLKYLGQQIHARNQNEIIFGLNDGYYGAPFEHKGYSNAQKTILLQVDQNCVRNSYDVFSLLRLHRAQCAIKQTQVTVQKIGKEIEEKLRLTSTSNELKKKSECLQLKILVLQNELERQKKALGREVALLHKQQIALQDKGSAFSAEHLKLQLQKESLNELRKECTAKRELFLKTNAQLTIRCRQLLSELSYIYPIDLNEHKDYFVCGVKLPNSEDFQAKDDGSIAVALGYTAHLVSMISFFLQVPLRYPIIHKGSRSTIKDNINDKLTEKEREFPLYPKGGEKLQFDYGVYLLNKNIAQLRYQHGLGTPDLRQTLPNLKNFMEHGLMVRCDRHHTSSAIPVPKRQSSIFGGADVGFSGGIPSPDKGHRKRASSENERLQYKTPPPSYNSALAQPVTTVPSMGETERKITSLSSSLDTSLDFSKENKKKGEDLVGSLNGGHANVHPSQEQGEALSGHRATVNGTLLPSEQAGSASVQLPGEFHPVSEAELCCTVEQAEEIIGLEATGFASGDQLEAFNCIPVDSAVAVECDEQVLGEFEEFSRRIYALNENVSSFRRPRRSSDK
UniProt Q9UDW1: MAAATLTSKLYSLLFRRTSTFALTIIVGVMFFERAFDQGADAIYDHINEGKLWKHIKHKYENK
UniProt P61758, whole entry, looked up: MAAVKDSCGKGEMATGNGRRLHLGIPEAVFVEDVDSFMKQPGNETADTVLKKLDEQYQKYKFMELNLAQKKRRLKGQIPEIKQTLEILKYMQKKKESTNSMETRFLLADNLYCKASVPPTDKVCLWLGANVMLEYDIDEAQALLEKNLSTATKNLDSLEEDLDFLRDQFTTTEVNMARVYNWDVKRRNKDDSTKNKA
UniProt Q9BV40: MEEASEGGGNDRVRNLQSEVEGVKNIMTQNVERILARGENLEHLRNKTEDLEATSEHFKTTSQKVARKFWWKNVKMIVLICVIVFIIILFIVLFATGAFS
UniProt Q6BDS2: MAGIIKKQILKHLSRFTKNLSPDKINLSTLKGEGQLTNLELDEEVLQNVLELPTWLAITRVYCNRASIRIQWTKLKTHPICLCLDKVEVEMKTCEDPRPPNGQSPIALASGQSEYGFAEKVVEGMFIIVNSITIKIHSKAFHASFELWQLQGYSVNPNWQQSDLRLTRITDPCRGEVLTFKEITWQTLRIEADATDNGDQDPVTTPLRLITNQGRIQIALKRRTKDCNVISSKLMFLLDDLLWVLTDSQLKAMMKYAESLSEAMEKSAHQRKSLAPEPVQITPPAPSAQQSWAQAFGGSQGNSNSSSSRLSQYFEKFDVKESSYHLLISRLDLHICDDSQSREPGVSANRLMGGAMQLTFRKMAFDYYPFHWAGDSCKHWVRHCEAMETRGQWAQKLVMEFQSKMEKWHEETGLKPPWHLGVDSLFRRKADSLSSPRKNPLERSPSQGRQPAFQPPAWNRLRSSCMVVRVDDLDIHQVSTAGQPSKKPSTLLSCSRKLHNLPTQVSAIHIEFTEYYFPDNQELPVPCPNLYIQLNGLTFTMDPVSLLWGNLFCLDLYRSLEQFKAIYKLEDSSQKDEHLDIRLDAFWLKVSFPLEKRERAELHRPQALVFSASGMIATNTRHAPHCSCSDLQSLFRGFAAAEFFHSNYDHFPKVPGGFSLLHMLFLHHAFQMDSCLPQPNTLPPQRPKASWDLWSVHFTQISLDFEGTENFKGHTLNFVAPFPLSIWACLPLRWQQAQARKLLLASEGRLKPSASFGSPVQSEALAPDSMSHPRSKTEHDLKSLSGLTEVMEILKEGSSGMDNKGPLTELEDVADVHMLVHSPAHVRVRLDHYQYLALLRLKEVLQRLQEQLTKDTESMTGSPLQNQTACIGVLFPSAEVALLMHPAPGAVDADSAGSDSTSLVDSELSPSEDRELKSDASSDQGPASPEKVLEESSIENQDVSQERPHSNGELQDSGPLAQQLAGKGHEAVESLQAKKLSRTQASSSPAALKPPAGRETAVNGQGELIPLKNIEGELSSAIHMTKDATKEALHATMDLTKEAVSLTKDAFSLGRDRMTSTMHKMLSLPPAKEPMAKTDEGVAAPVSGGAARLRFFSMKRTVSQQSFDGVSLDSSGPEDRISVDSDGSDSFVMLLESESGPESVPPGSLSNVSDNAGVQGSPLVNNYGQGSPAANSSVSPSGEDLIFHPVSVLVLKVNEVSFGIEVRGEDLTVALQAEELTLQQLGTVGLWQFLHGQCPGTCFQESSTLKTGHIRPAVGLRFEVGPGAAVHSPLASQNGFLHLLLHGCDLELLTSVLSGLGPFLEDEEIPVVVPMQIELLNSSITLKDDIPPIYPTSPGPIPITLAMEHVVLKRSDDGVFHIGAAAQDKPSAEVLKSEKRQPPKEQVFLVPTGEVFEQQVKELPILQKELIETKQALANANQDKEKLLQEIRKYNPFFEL
UniProt Q70J99: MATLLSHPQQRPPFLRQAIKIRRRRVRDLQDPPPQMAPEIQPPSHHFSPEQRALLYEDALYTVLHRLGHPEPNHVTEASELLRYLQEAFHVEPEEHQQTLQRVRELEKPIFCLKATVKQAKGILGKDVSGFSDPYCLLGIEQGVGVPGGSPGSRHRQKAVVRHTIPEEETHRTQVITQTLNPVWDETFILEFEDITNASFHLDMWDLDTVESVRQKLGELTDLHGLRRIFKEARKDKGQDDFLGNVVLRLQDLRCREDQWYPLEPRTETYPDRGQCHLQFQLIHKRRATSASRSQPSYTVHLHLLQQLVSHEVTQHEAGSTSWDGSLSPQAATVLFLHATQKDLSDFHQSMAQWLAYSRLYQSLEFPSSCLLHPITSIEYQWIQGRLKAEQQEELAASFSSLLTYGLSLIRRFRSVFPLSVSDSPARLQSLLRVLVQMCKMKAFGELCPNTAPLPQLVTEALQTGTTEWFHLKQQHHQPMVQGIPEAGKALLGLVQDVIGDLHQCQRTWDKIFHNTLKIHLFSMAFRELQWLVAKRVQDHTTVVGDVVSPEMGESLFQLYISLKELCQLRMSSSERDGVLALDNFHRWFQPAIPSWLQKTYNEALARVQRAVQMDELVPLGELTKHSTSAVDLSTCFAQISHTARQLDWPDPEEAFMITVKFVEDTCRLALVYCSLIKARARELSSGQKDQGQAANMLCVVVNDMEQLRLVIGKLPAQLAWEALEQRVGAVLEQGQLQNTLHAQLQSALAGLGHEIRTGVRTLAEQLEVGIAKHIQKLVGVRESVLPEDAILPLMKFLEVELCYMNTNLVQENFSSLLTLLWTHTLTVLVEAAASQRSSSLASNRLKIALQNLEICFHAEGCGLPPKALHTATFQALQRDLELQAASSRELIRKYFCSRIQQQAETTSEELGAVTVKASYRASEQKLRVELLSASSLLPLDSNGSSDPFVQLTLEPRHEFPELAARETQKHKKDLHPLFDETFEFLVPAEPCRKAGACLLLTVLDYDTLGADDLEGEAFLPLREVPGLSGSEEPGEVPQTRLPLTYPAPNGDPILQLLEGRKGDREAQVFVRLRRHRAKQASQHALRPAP
UniProt Q9UMX0, whole entry, looked up: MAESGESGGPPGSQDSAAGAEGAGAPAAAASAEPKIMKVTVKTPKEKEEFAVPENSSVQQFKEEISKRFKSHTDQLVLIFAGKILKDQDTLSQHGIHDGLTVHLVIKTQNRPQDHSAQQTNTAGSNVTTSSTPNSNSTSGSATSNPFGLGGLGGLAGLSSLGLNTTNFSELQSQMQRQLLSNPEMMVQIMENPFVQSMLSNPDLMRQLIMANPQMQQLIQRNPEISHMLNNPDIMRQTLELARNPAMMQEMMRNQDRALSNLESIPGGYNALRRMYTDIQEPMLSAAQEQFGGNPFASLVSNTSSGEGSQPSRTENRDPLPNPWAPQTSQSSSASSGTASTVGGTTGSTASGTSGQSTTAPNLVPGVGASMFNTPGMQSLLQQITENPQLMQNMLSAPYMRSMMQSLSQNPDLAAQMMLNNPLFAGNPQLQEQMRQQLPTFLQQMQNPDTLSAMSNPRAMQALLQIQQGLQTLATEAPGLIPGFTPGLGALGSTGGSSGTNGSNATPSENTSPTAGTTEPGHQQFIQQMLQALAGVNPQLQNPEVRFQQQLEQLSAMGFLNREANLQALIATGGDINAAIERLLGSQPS

Key:
Test in all cases: log2 fold change, soluble protein after heating vs DMSO (PISA); higher = thermal stabilisation; K562 cells, 10 uM, 30 min; active = over 0.2 and 3.5 SD of the protein, either way, in both replicates (recomputed)
[1] = compound: COC1=CC=C(C=C1)CN2C=CC3=C2C=C(C=C3)C(=O)NO
Summary of the method: (§1)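 Soluble protein was quantified by TMTpro 16plex LC-MS/MS after channel sums were equalised. It was obtained as the supernatant after 21,000xg for 90 min from pooled aliquots of K562 cells (2×10^6 cells/mL, 10 μM compound, 30 min) heated for 3 min across 48°C-58°C and extracted in PBS with 0.5% NP-40 at 4°C. Thermal stability values are relative to control samples and come from duplicates. They are given as log2 fold changes.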

filanesib = compound: CON(C)C(=O)N1N=C(c2cc(F)ccc2F)S[C@@]1(CCCN)c1ccccc1 [filanesib]
Summary of the method: as §1

zotarolimus = compound: CO[C@H]1C[C@@H]2CC[C@@H](C)[C@@](O)(O2)C(=O)C(=O)N2CCCC[C@H]2C(=O)O[C@H]([C@H](C)C[C@@H]2CC[C@H](n3cnnn3)[C@H](OC)C2)CC(=O)[C@H](C)/C=C(\C)[C@@H](O)[C@@H](OC)C(=O)[C@H](C)C[C@H](C)/C=C/C=C/C=C/1C [zotarolimus]
Summary of the method: as §1

idasanutlin = compound: COc1cc(C(=O)O)ccc1NC(=O)[C@@H]1N[C@@H](CC(C)(C)C)[C@](C#N)(c2ccc(Cl)cc2F)[C@H]1c1cccc(Cl)c1F [idasanutlin]
Summary of the method: as §1

alisertib = compound: COc1cc(Nc2ncc3c(n2)-c2ccc(Cl)cc2C(c2c(F)cccc2OC)=NC3)ccc1C(=O)O [alisertib]
Summary of the method: as §1

[2] = compound: COc1cc2nc(-c3cc(F)ccc3O)nc(N[C@@H]3CNC[C@H]3C(C)(C)O)c2cc1OC
Summary of the method: as §1

gefitinib = compound: COc1cc2ncnc(Nc3ccc(F)c(Cl)c3)c2cc1OCCCN1CCOCC1 [gefitinib]
Summary of the method: as §1

[3] = compound: COc1cccc2cc(-c3nc([C@H]4CC[C@H](C(=O)O)CC4)n4ncnc(N)c34)[nH]c12
Summary of the method: as §1

lapatinib = compound: CS(=O)(=O)CCNCc1ccc(-c2ccc3ncnc(Nc4ccc(OCc5cccc(F)c5)c(Cl)c4)c3c2)o1 [lapatinib]
Summary of the method: as §1

pictilisib = compound: CS(=O)(=O)N1CCN(Cc2cc3nc(-c4cccc5[nH]ncc45)nc(N4CCOCC4)c3s2)CC1 [pictilisib]
Summary of the method: as §1

[4] = compound: CS(=O)(=O)c1ccc(-c2cnc(N)c(C(=O)Nc3ccccc3)n2)cc1
Summary of the method: as §1

crizotinib = compound: C[C@@H](Oc1cc(-c2cnn(C3CCNCC3)c2)cnc1N)c1c(Cl)ccc(F)c1Cl [crizotinib]
Summary of the method: as §1

[5] = compound: C[C@@H]1COCCN1C2=NC(=NC(=C2)C3(CC3)S(=O)(=O)C)C4=C5C=CNC5=CC=C4
Summary of the method: as §1

[6] = compound: C[C@H](C1=CC=C(C=C1)C(=O)NC2=C3C=CNC3=NC=C2)N
Summary of the method: as §1

gandotinib = compound: Cc1cc(Nc2cc(CN3CCOCC3)c3nc(C)c(Cc4ccc(Cl)cc4F)n3n2)n[nH]1 [gandotinib]
Summary of the method: as §1

[7] = compound: Cc1cc(SCc2sc(-c3ccc(C(F)(F)F)cc3)nc2C)ccc1OCC(=O)O
Summary of the method: as §1

doramapimod = compound: Cc1ccc(-n2nc(C(C)(C)C)cc2NC(=O)Nc2ccc(OCCN3CCOCC3)c3ccccc23)cc1 [doramapimod]
Summary of the method: as §1

ispinesib = compound: Cc1ccc(C(=O)N(CCCN)[C@@H](c2nc3cc(Cl)ccc3c(=O)n2Cc2ccccc2)C(C)C)cc1 [ispinesib]
Summary of the method: as §1

duvelisib = compound: C[C@H](Nc1ncnc2nc[nH]c12)c1cc2cccc(Cl)c2c(=O)n1-c1ccccc1 [duvelisib]
Summary of the method: as §1

tozasertib = compound: Cc1cc(Nc2cc(N3CCN(C)CC3)nc(Sc3ccc(NC(=O)C4CC4)cc3)n2)n[nH]1 [tozasertib]
Summary of the method: as §1

Target | log2 fold change [1] | log2 fold change (filanesib) | log2 fold change (zotarolimus) | log2 fold change (idasanutlin) | log2 fold change (alisertib) | log2 fold change [2] | log2 fold change (gefitinib) | log2 fold change [3] | log2 fold change (lapatinib) | log2 fold change (pictilisib) | log2 fold change [4] | log2 fold change (crizotinib) | log2 fold change [5] | log2 fold change [6] | log2 fold change (gandotinib) | log2 fold change [7] | log2 fold change (doramapimod) | log2 fold change (ispinesib) | log2 fold change (duvelisib) | log2 fold change (tozasertib)
UTP14A (UniProt Q9BVJ6) | inactive: -0.114 | inactive: 0.336 | inactive: -0.022 | inactive: 0.161 | inactive: -0.077 | inactive: -0.111 | inactive: -0.062 | inactive: -0.138 | inactive: 0.156 | inactive: -0.174 | inactive: -0.059 | inactive: -0.035 | inactive: -0.382 | inactive: 0.274 | inactive: 0.151 | inactive: 0.065 | inactive: 0.172 | inactive: -0.171 | – | –
UVRAG (UniProt Q9P2Y5) | inactive: -0.095 | inactive: -0.013 | inactive: 0.044 | inactive: -0.18 | inactive: 0.066 | inactive: 0.166 | inactive: 0.017 | inactive: -0.046 | inactive: -0.012 | inactive: 0.034 | inactive: 0.103 | inactive: -0.015 | inactive: 0.039 | inactive: 0.03 | inactive: 0.181 | inactive: 0 | inactive: 0.014 | inactive: -0.062 | inactive: 0.229 | inactive: 0.053
UQCR10 (UniProt Q9UDW1) | inactive: -0.084 | inactive: -0.05 | inactive: -0.02 | inactive: 0.031 | inactive: -0.005 | inactive: 0.037 | inactive: -0.028 | inactive: 0.022 | inactive: -0.038 | inactive: -0.063 | inactive: -0.036 | inactive: 0.079 | inactive: 0.071 | inactive: -0.043 | active: -0.403 | inactive: 0.013 | inactive: -0.025 | inactive: 0.095 | – | –
VBP1 (UniProt P61758) | inactive: -0.087 | inactive: -0.02 | inactive: -0.041 | inactive: 0.01 | inactive: 0.001 | inactive: 0.005 | inactive: 0.001 | inactive: 0.036 | inactive: -0.005 | inactive: 0.005 | inactive: 0.016 | inactive: 0.066 | inactive: -0.004 | inactive: -0.077 | inactive: 0.01 | inactive: -0.003 | inactive: -0.012 | inactive: -0.014 | inactive: 0.006 | inactive: -0.031
VAMP8 (UniProt Q9BV40) | inactive: -0.048 | inactive: -0.082 | inactive: -0.004 | inactive: -0.01 | inactive: -0.01 | inactive: -0.059 | inactive: 0.008 | inactive: 0.044 | inactive: -0.017 | inactive: 0.026 | inactive: 0.022 | inactive: 0.026 | inactive: 0.094 | inactive: -0.076 | inactive: 0.067 | inactive: -0.05 | inactive: -0.046 | inactive: -0.141 | inactive: 0.038 | inactive: -0.039
UHRF1BP1 (UniProt Q6BDS2) | inactive: -0.025 | inactive: 0.079 | inactive: 0.161 | inactive: -0.029 | inactive: -0.033 | inactive: 0.104 | inactive: 0.045 | inactive: 0.037 | inactive: 0.038 | inactive: 0.032 | inactive: 0.003 | inactive: 0.086 | inactive: 0.001 | inactive: -0.009 | inactive: -0.004 | inactive: -0.014 | inactive: 0.014 | inactive: 0.12 | – | –
UNC13D isoform 3 (UniProt Q70J99) | inactive: -0.026 | inactive: 0.245 | inactive: 0.142 | inactive: 0.122 | inactive: -0.245 | inactive: -0.057 | inactive: 0.192 | inactive: -0.283 | inactive: 0.05 | inactive: 0.068 | inactive: 0.037 | inactive: -0.073 | inactive: -0.21 | inactive: 0.307 | inactive: 0.08 | inactive: 0.123 | inactive: 0.199 | inactive: -0.217 | inactive: -0.136 | inactive: 0.001
UBQLN1 (UniProt Q9UMX0) | inactive: -0.034 | inactive: -0.01 | inactive: -0.035 | inactive: 0.014 | inactive: -0.067 | inactive: -0.046 | inactive: 0.005 | inactive: 0.081 | inactive: 0.03 | inactive: -0.013 | inactive: -0.062 | inactive: 0.043 | inactive: 0.08 | inactive: -0.029 | inactive: 0.015 | inactive: -0.028 | inactive: 0.037 | inactive: -0.006 | inactive: 0.084 | inactive: 0.06

A different layout for some results above.
Target	log2 fold change [1]	log2 fold change (filanesib)	log2 fold change (zotarolimus)	log2 fold change (idasanutlin)	log2 fold change (alisertib)	log2 fold change [2]	log2 fold change (gefitinib)	log2 fold change [3]	log2 fold change (lapatinib)	log2 fold change (pictilisib)	log2 fold change [4]	log2 fold change (crizotinib)	log2 fold change [5]	log2 fold change [6]	log2 fold change (gandotinib)	log2 fold change [7]	log2 fold change (doramapimod)	log2 fold change (ispinesib)	log2 fold change (duvelisib)	log2 fold change (tozasertib)
VAMP8 (UniProt Q9BV40)	inactive: -0.048	inactive: -0.082	inactive: -0.004	inactive: -0.01	inactive: -0.01	inactive: -0.059	inactive: 0.008	inactive: 0.044	inactive: -0.017	inactive: 0.026	inactive: 0.022	inactive: 0.026	inactive: 0.094	inactive: -0.076	inactive: 0.067	inactive: -0.05	inactive: -0.046	inactive: -0.141	inactive: 0.038	inactive: -0.039
UHRF1BP1 (UniProt Q6BDS2)	inactive: -0.025	inactive: 0.079	inactive: 0.161	inactive: -0.029	inactive: -0.033	inactive: 0.104	inactive: 0.045	inactive: 0.037	inactive: 0.038	inactive: 0.032	inactive: 0.003	inactive: 0.086	inactive: 0.001	inactive: -0.009	inactive: -0.004	inactive: -0.014	inactive: 0.014	inactive: 0.12	–	–
